Results reported in paper PMC9536273.
Results are given in words; binding and its absence hold for the method and conditions named. Binding seen in cells or lysates may run through a third protein. Some results given as binding are weak or reduced against the parent protein; the word gives no strength. Values belong to the substance of their own block, whether it stands above or below them.

The chains behind the UniProt entries cited, without tags or fusion partners. Where a name states a change or a piece, a line headed by the entry shows the natural chain unless it says otherwise. Residues count along the entry.
UniProt P05556: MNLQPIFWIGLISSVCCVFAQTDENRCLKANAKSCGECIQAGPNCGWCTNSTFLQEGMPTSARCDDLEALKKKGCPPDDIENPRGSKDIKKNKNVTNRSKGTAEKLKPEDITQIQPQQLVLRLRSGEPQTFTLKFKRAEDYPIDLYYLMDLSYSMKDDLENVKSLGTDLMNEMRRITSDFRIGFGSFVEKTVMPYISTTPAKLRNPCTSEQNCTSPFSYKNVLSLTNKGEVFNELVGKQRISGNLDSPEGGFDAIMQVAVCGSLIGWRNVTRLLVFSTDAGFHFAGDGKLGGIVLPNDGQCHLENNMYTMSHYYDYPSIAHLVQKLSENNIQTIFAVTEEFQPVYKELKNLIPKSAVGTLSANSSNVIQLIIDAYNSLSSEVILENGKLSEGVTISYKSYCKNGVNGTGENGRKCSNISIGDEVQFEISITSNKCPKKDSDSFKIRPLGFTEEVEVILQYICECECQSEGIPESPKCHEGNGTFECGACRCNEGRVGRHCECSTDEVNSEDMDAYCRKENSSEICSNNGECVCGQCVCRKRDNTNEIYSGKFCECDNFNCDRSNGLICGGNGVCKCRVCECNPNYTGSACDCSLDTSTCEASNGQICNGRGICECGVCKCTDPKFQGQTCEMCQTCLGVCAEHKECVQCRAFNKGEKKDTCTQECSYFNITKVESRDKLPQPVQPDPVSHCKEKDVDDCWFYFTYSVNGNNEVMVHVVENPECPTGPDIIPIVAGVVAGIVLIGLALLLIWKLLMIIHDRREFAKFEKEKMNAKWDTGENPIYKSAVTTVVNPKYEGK
UniProt P09055, residues 21-798: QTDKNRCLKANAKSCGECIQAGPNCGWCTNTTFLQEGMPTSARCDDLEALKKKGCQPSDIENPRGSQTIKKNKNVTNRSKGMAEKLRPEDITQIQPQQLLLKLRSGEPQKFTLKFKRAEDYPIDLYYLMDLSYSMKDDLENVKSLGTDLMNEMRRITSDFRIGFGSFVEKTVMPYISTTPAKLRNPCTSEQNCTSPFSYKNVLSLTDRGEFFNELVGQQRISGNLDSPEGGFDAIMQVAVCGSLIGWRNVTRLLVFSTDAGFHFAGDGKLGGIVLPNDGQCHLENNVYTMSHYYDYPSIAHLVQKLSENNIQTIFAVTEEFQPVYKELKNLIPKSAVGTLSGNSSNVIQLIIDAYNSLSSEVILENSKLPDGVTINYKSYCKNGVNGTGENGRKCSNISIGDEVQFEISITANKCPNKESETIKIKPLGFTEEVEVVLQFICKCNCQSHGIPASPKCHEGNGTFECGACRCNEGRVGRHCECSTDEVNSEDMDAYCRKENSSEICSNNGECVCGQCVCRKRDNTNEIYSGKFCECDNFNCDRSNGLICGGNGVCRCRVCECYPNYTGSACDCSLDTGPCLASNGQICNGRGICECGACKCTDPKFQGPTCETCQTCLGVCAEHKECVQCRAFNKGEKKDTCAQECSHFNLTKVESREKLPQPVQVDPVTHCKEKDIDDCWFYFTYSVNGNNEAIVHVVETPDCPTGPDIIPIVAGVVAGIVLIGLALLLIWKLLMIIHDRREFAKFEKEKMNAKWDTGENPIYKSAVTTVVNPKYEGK
UniProt P62834: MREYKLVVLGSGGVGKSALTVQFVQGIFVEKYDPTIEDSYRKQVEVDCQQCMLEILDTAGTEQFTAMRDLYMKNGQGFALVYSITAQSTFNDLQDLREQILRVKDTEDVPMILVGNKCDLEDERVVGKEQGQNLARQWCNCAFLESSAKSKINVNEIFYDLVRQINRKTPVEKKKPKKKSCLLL
UniProt P62835: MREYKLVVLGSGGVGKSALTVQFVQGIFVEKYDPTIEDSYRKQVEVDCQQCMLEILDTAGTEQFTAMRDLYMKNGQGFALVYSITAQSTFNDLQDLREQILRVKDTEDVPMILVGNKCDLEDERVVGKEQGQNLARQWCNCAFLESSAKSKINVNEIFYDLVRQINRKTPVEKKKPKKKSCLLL

Experiments:
[1] = target: β1 integrin (human, SKCO-15) (human (endogenous in SKCO-15)) (UniProt P05556); assay: co-IP; lysates of human SKCO-15 IEC, control and JAM-A knockdown; relaxation lysis buffer with 1% octyl-β-glucoside; IP with antibodies (5 μg/mL, overnight, 4°C), protein A or G Dynabeads; immunoblot
[2] = target: β1 integrin (mouse (endogenous in primary colonic epithelial cells)) (UniProt P09055); assay: co-IP; lysates of spread primary mouse IEC (2D colonoids) from Jam-a fl/fl and tamoxifen-treated Jam-a ERdeltaIEC mice; relaxation lysis buffer (10 mM HEPES, 10 mM NaCl, 3.5 mM MgCl2, 100 mM KCl) with 1% octyl-β-glucoside; IP with anti-Rap1A or anti-β1 integrin antibody (5 μg/mL, overnight, 4°C), protein A or G Dynabeads; immunoblot for talin, β1 integrin, Rap1A
[3] = target: Rap1A (human, SKCO-15) (human (endogenous in SKCO-15)) (UniProt P62834); assay: co-IP; lysates of human SKCO-15 IEC, control and JAM-A knockdown; relaxation lysis buffer with 1% octyl-β-glucoside; IP with antibodies (5 μg/mL, overnight, 4°C), protein A or G Dynabeads; immunoblot
[4] = target: Rap1A (mouse (endogenous in primary colonic epithelial cells)) (UniProt P62835); assay: co-IP; lysates of spread primary mouse IEC (2D colonoids) from Jam-a fl/fl and tamoxifen-treated Jam-a ERdeltaIEC mice; relaxation lysis buffer (10 mM HEPES, 10 mM NaCl, 3.5 mM MgCl2, 100 mM KCl) with 1% octyl-β-glucoside; IP with anti-Rap1A or anti-β1 integrin antibody (5 μg/mL, overnight, 4°C), protein A or G Dynabeads; immunoblot for talin, β1 integrin, Rap1A

binding [1]: binds
Substance: Rap1A (human, SKCO-15) (from UniProt P62834 1-184)

binding [2]: binds
Substance: Rap1A (from UniProt P62835 1-184)

binding [3]: binds
Substance: β1 integrin (human, SKCO-15) (from UniProt P05556 21-798) (receptor)

binding [4]: binds
Substance: β1 integrin (from UniProt P09055 21-798) (receptor)
